Measured values as given in US4118506A, “Pharmaceutical compositions containing 1,3-dithiol-2-ylidene malonate derivatives” (Nihon Nohyaku Co., Ltd., priority 1976, dated 1978).
At least one compound was matched to its structure with a doubt left.

System: bile flow and excretion of biliary salt
Test: cholagogic action: bile flow and biliary salt excretion
Assay type: in vivo, rat (SD-JCL strain)
Details: in words, 200 mg/kg oral
Experimental: The male rat (4 week-old, SD-JCL strain) was anesthetized with sodium pentobarbital (37.5 mg/kg, intraperitoneal injection). The abdominal cavity was opened through a midline incision. The common bile duct was catheterized with polyethylene tube o.d. 0.8 mm. The catheter was brought to the outside through the abdominal incision wound prior to closing. Bile was collected from the catheter continuously with time intervals of one hour. The quantity of bile produced in one hour was determined by weighing and that of biliary salt was determined by enzymatic method (Ikagaku Jikkenho Koza 1B, Biological Constituents II, edited by Tamino […]). The amount of biliary salts was represented as chloic acid equivalent. In the representation of the results, the quantities of bile and biliary salts produced in one hour prior to the administration of drug were taken as 100. […] As reference, anethol trithion was used.

COc1ccc(-c2cc(=S)ss2)cc1 [Anethol trithion, reference compound]
increase in the excretion of biliary salt: no particular increase
